# Values of other authors as cited in US8008088B2, “SMMR (small molecule metabolite reporters) for use as in vivo glucose biosensors” (Masimo Laboratories, Inc., priority 2003, dated 2011).
# For at least one compound, name, drawing or mass did not settle the structure.
# Conditions: cited from earlier work
smiles,measurement,value
CCN(CC)c1ccc2c(-c3ccccc3C(=O)O)c3ccc(=[N+](CC)CC)cc-3oc2c1.[Cl-] [Rhodamine B],molar absorption coefficient,"109,000 dm^3 mol^−1 cm^−1"
same,quantum yield of fluorescence,close to unity
